Measurements as given in doi:10.1101/2025.04.28.651057.
No constants are given. Whether binding was seen depends on the method and setting. Binding seen in cells or lysates may run through a third protein. Some entries that bind do so weakly or less than the wild type. For some assays here: Sequences can lack the tags named with a protein.

Amino acid sequences for entries named in this document (tags omitted). A change or cut given only in a name is not applied to a line headed by its entry.
UniProt Q8VDZ4, whole entry: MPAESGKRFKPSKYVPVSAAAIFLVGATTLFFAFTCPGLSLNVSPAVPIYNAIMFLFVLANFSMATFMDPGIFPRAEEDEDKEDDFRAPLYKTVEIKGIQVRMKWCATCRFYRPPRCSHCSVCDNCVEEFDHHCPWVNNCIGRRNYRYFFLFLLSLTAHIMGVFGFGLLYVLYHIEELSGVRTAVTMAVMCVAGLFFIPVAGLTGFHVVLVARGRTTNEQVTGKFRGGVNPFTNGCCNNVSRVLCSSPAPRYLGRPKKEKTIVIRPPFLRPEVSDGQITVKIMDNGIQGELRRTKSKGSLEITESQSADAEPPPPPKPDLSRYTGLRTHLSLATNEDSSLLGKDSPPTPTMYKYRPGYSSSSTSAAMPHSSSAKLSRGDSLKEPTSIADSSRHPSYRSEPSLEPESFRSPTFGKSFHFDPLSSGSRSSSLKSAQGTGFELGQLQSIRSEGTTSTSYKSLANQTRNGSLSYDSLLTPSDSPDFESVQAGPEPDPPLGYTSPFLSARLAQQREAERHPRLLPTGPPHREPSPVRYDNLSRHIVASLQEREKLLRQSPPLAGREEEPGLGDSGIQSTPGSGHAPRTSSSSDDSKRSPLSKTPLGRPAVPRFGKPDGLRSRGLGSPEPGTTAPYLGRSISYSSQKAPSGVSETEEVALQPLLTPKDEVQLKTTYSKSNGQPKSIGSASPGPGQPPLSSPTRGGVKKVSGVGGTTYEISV
UniProt P59267, whole entry: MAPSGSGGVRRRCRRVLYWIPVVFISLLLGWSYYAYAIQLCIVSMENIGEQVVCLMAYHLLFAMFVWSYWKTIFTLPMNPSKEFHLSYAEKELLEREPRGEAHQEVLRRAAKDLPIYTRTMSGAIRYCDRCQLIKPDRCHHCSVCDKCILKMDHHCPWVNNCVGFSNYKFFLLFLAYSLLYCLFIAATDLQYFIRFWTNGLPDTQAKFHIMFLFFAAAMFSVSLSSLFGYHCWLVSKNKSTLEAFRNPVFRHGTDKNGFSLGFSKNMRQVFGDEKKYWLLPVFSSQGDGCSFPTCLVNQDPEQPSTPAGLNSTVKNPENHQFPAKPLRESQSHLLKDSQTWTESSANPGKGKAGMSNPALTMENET
UniProt P59268, whole entry: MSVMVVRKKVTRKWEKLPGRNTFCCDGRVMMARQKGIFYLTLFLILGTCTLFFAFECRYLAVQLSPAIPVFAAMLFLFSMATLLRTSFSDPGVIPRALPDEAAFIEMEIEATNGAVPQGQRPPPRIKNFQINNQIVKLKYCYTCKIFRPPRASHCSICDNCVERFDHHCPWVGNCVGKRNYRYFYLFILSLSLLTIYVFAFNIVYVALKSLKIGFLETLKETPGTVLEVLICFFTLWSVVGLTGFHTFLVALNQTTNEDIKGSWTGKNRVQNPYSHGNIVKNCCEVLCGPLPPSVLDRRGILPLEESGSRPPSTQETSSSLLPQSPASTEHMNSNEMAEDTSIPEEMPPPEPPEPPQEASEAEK
UniProt Q7Z5G4, whole entry: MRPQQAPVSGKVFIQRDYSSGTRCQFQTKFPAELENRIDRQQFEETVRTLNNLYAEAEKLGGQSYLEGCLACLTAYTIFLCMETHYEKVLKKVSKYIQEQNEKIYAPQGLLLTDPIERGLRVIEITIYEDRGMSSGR

Assays:
Assay in all cases: co-IP
[1] = target: T1, HA-Zdhhc11 (mouse) (mouse) (UniProt Q14AK4)
T1 sequence: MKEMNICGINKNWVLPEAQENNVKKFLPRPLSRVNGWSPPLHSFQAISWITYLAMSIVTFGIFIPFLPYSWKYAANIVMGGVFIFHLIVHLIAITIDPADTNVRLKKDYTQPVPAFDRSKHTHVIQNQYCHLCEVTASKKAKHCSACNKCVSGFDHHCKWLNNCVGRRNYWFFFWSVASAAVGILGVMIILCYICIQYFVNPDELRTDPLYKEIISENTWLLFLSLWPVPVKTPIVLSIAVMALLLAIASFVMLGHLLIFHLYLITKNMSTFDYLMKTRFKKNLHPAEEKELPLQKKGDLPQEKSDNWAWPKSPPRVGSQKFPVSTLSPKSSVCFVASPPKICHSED

[2] = target: T2, HA-Zdhhc13 (mouse) (mouse) (UniProt Q9CWU2)
T2 sequence: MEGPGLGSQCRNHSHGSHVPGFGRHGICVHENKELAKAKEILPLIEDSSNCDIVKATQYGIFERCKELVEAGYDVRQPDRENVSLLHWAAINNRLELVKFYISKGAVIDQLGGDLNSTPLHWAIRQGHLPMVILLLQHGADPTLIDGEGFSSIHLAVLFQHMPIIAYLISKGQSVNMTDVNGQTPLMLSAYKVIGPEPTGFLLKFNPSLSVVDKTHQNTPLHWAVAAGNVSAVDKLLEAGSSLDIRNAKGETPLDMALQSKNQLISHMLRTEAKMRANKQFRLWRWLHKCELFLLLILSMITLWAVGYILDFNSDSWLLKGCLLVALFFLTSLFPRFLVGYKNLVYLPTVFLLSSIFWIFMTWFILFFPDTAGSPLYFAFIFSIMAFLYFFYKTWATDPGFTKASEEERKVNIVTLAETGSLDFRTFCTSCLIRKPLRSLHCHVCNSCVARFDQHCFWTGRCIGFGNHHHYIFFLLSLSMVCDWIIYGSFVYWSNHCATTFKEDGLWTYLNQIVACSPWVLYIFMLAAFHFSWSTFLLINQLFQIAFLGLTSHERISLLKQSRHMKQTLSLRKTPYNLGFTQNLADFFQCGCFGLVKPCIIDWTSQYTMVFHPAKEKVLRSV

[3] = target: HA-Zdhhc5 (mouse, wild type, full length) (mouse) (UniProt Q8VDZ4)
[4] = target: HA-Zdhhc2 (mouse) (mouse) (UniProt P59267)
[5] = target: HA-Zdhhc9 (mouse) (mouse) (UniProt P59268)
[6] = target: T3, HA-Zdhhc25 (mouse) (mouse) (UniProt Q810M4)
T3 sequence: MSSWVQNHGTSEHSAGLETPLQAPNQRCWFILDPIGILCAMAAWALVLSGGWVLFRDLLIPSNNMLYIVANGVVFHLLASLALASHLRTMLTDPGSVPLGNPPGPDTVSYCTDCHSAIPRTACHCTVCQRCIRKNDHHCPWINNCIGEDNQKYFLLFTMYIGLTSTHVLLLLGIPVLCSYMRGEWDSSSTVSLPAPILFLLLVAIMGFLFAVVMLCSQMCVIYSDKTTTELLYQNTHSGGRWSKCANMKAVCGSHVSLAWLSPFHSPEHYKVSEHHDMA

[7] = target: T4, HA-Zdhhc20 (mouse) (mouse) (UniProt Q5Y5T1)
T4 sequence: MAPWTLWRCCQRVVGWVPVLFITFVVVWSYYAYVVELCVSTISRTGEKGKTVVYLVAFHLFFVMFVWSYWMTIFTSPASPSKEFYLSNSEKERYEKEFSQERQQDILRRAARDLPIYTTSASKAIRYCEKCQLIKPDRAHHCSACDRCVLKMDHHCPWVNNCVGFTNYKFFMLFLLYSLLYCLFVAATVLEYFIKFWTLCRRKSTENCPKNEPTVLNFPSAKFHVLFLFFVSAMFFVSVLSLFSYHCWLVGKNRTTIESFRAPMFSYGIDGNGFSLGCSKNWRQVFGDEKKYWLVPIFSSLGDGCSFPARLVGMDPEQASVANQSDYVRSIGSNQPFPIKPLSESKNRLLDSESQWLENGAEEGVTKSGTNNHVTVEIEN

[8] = target: Zdhhc5^ANYR (Arg144Ala) (mouse) (UniProt Q8VDZ4)

endogenous human GOLGA7 (from UniProt Q7Z5G4 1-137)
binding [1]: no binding
binding [2]: no binding
binding [3]: binds
binding [4]: no binding
binding [5]: binds
binding [6]: no binding
binding [7]: no binding
binding [8]: binds
